Measurements from patent US8492375B2, “1-benzoyl substituted diazepine derivatives as selective histamine H3 receptor agonists” (Glaxo Group Limited, priority 2003, dated 2013).
Counter-ions that a name gives are not always drawn. Some entries share one result that the patent states for a list of compounds. For some assays here: At least one compound was matched to its structure with a doubt left.

Chains of the proteins cited; added tags and fusions are not shown. Lines headed by an entry give the natural chain unless they say otherwise; changes in a name come on top.
UniProt P35367, whole entry: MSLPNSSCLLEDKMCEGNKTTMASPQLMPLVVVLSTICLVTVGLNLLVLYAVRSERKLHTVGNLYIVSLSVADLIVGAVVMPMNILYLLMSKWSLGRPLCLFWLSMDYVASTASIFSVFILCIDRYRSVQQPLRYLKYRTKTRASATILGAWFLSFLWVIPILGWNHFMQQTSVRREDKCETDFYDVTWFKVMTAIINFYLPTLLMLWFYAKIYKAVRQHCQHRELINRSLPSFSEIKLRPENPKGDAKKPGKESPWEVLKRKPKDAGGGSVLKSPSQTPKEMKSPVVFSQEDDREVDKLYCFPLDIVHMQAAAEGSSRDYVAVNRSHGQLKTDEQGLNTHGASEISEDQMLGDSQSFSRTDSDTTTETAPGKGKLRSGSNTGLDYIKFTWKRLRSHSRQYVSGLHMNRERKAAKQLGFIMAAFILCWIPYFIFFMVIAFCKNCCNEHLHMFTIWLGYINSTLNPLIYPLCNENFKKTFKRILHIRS
UniProt Q9Y5N1: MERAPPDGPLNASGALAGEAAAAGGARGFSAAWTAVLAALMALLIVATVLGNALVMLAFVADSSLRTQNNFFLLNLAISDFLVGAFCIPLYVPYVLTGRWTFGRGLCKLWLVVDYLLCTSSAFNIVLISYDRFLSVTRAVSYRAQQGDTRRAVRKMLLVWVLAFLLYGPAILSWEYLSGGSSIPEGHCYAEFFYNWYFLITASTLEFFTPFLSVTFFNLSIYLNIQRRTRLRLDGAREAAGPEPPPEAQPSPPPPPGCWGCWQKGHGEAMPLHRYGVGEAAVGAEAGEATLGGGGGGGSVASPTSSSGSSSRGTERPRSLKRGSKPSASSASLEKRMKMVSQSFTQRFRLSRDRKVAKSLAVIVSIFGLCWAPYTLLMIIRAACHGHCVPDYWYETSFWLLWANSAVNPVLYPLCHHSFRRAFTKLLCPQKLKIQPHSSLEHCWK

Tests used:
human H1 receptor = target: T1, human H1 receptor (Homo sapiens, UniProt P35367); assay: Histamine H1 functional antagonist assay (FLIPR, histamine induced increase in fluorescence); format: cell-based; conditions: Chinese hamster ovary cells stably expressing the human H1 receptor
T1 construct: expressed in transfected cells
Protocol: (iii) Generation of Histamine H1 Cell Line
The human H1 receptor was cloned using known procedures described in the literature [Biochem. Biophys. Res. Commun.
(III) Histamine H1 Functional Antagonist Assay
Compounds are assayed in a black walled clear bottom 384-well plate with cells seeded at 10000 cells/well. […] Each well is treated with 10 μl of a solution of FLUO4AM (10 μM in Tyrodes buffer at pH 7.40) and plates are then incubated for 60 minutes at 37° C. Wells are then washed with Tyrodes buffer using a EMBLA cell washer system, leaving 400 buffer in each well, and then treated with 100 of test compound in Tyrodes buffer. Each plate is incubated for 30 min to allow equilibration of the test compound with the receptor. Each well is then treated with 100 of histamine solution in Tyrodes buffer.
Functional antagonism is indicated by a suppression of histamine induced increase in fluorescence, as measured by the FLIPR system (Molecular Devices). By means of concentration effect curves, functional potencies are determined using standard pharmacological mathematical analysis.

histamine H3 receptor = histamine H3 receptor (Homo sapiens, UniProt Q9Y5N1); assay: Histamine H3 functional antagonist assay ([35S]GTPγS binding, SPA, membranes of CHO K1 cells); conditions: antagonism of 0.3 μM histamine, membranes with human H3 receptor

CNC(=O)c1ccc(-c2ccc(C(=O)N3CCCN(C(C)C)CC3)cc2)cn1 [Example 16, N-Methyl-5-(4-{[4-(1-isopropyl)hexahydro-1H-1,4-diazepin-1-yl]carbonyl}phenyl)-2-pyridinecarboxamide hydrochloride]
antagonism pKb, histamine H1 functional antagonist assay (human H1 receptor): < 7.0
pKb, histamine H3 functional antagonist assay (histamine H3 receptor): > 8.0

CC(C)N1CCCN(C(=O)c2ccc(OC3CCOCC3)cc2)CC1 [Example 10, 1-(Isopropyl)-4-{[4-(tetrahydro-2H-pyran-4-yloxy)phenyl]carbonyl}hexahydro-1H-1,4-diazepine hydrochloride]
antagonism pKb, histamine H1 functional antagonist assay (human H1 receptor): < 7.0
pKb, histamine H3 functional antagonist assay (histamine H3 receptor): > 8.0

O=C(c1ccc(-c2ncco2)cc1)N1CCCN(C2CCC2)CC1 [Example 56, 1-Cyclobutyl-4-{[4-(1,3-oxazol-2-yl)phenyl]carbonyl}hexahydro-1H-1,4-diazepine hydrochloride]
pKb, histamine H3 functional antagonist assay (histamine H3 receptor): > 8.0

N#Cc1ccc(-c2ccc(C(=O)N3CCCN(C4CCC4)CC3)cc2)nc1 [Example 12, 6-{4-[(4-Cyclobutylhexahydro-1H-1,4-diazepin-1-yl)carbonyl]phenyl}-3-cyanopyridine hydrochloride]
antagonism pKb, histamine H1 functional antagonist assay (human H1 receptor): < 7.0
pKb, histamine H3 functional antagonist assay (histamine H3 receptor): > 8.0

CC(=O)c1ccc(-c2ccc(C(=O)N3CCCN(C4CCC4)CC3)cc2)cc1 [Example 2, 1-{4′-[(4-Cyclobutylhexahydro-1H-1,4-diazepin-1-yl)carbonyl]-4-biphenylyl}ethanone hydrochloride]
antagonism pKb, histamine H1 functional antagonist assay (human H1 receptor): < 7.0
pKb, histamine H3 functional antagonist assay (histamine H3 receptor): > 8.0

N#Cc1ccc(-c2ccc(C(=O)N3CCCN(C4CCC4)CC3)cc2)cc1 [Example 1, 4′-[(4-Cyclobutylhexahydro-1H-1,4-diazepin-1-yl)carbonyl]-4-biphenylcarbonitrile hydrochloride]
antagonism pKb, histamine H1 functional antagonist assay (human H1 receptor): < 7.0
pKb, histamine H3 functional antagonist assay (histamine H3 receptor): > 8.0

O=C(c1ccc(-n2cnnn2)cc1)N1CCCN(C2CCC2)CC1 [Example 7, 1-Cyclobutyl-4-{[4-tetrazol-1-yl)phenyl]carbonyl}hexahydro-1H-1,4-diazepine hydrochloride]
antagonism pKb, histamine H1 functional antagonist assay (human H1 receptor): < 7.0
pKb, histamine H3 functional antagonist assay (histamine H3 receptor): > 8.0

O=C(c1ccc(-c2cnc(C(F)(F)F)nc2)cc1)N1CCCN(C2CCC2)CC1 [Example 23, 1-Cyclobutyl-4-({4-[2-(trifluoromethyl)-5-pyrimidinyl]phenyl}carbonyl)hexahydro-1H-1,4-diazepine hydrochloride]
antagonism pKb, histamine H1 functional antagonist assay (human H1 receptor): < 7.0
pKb, histamine H3 functional antagonist assay (histamine H3 receptor): > 8.0

Cc1noc(-c2ccc(C(=O)N3CCCN(C(C)C)CC3)cc2)n1 [Example 57, 1-(1-Methylethyl)-4-{[4-(3-methyl-1,2,4-oxadiazol-5-yl)phenyl]carbonyl}hexahydro-1H-1,4-diazepine hydrochloride]
pKb, histamine H3 functional antagonist assay (histamine H3 receptor): > 8.0

Cc1noc(-c2ccc(C(=O)N3CCCN(C4CCC4)CC3)cc2)n1 [Example 58, 1-Cyclobutyl-4-{[4-(3-methyl-1,2,4-oxadiazol-5-yl)phenyl]carbonyl}hexahydro-4H-1,4-diazepine hydrochloride]
pKb, histamine H3 functional antagonist assay (histamine H3 receptor): > 8.0

Cl.O=C(Nc1cccc(C(=O)N2CCCN(C3CCC3)CC2)c1)c1ccncc1 [Example 50]
pKb, histamine H3 functional antagonist assay (histamine H3 receptor): > 8.0

CNC(=O)c1ccc(-c2ccc(C(=O)N3CCCN(C4CCC4)CC3)cc2)cn1 [Example 13, 5-{4-[(4-Cyclobutylhexahydro-1H-1,4-diazepin-1-yl)carbonyl]phenyl}-N-methyl-2-pyridinecarboxamide hydrochloride]
antagonism pKb, histamine H1 functional antagonist assay (human H1 receptor): < 7.0
pKb, histamine H3 functional antagonist assay (histamine H3 receptor): > 8.0

CC(C)N1CCCN(C(=O)c2ccc(-c3ccc(C#N)nc3)cc2)CC1 [Example 15, 5-(4-{[4-(1-Isopropyl)hexahydro-1H-1,4-diazepin-1-yl]carbonyl}phenyl)-2-cyanopyridine hydrochloride]
antagonism pKb, histamine H1 functional antagonist assay (human H1 receptor): < 7.0
pKb, histamine H3 functional antagonist assay (histamine H3 receptor): > 8.0

Cl.O=C(c1cccc(OCc2cccnc2)c1)N1CCCN(C2CCC2)CC1 [Example 45]
pKb, histamine H3 functional antagonist assay (histamine H3 receptor): > 8.0

O=C(c1ccc(-c2nc(-c3ccc(F)cc3)cs2)cc1)N1CCCN(C2CCC2)CC1 [Example 8, 1-Cyclobutyl-4-({4-[4-(4-fluorophenyl)-1,3-thiazol-2-yl]phenyl}carbonyl) hexahydro-1H-1,4-diazepine hydrochloride]
antagonism pKb, histamine H1 functional antagonist assay (human H1 receptor): < 7.0
pKb, histamine H3 functional antagonist assay (histamine H3 receptor): > 8.0

Cc1nnnn1-c1cccc(C(=O)N2CCCN(C3CCC3)CC2)c1.Cl [Example 47]
pKb, histamine H3 functional antagonist assay (histamine H3 receptor): ≥ 9.0
pKb, histamine H3 functional antagonist assay (histamine H3 receptor; listed as Example E47): > 8.0

N#Cc1ccc(-c2ccc(C(=O)N3CCCN(C4CCC4)CC3)cc2)cn1 [Example 14, 5-{4-[(4-Cyclobutylhexahydro-1H-1,4-diazepin-1-yl)carbonyl]phenyl}-2-cyanopyridine hydrochloride]
antagonism pKb, histamine H1 functional antagonist assay (human H1 receptor): < 7.0
pKb, histamine H3 functional antagonist assay (histamine H3 receptor): > 8.0

O=C(c1ccc(-c2ccc(C(F)(F)F)nn2)cc1)N1CCCN(C2CCC2)CC1 [Example 22, 1-Cyclobutyl-4-({4-[6-(trifluoromethyl)-3-pyridazinyl]phenyl}carbonyl)hexahydro-1H-1,4-diazepine hydrochloride]
antagonism pKb, histamine H1 functional antagonist assay (human H1 receptor): < 7.0
pKb, histamine H3 functional antagonist assay (histamine H3 receptor): > 8.0

O=C(c1ccc(-c2ccc(C(F)(F)F)nc2)cc1)N1CCCN(C2CCC2)CC1 [Example 11, 1-Cyclobutyl-4-({4-[6-(trifluoromethyl)-3-pyridinyl]phenyl}carbonyl)hexahydro-1H-1,4-diazepine hydrochloride]
antagonism pKb, histamine H1 functional antagonist assay (human H1 receptor): < 7.0
pKb, histamine H3 functional antagonist assay (histamine H3 receptor): > 8.0

O=C(c1ccc(N2CCS(=O)(=O)CC2)cc1)N1CCCN(C2CCC2)CC1 [Example 9, 1-Cyclobutyl-4-{[4-(1,1-dioxido-4-thiomorpholinyl)phenyl]carbonyl}hexahydro-1H-1,4-diazepine hydrochloride]
antagonism pKb, histamine H1 functional antagonist assay (human H1 receptor): < 7.0
pKb, histamine H3 functional antagonist assay (histamine H3 receptor): > 8.0
